# Experimental data published in the supplement of paper PMC10849652.
# Chains of the proteins cited; added tags and fusions are not shown. Lines headed by an entry give the natural chain unless they say otherwise; changes in a name come on top.
# UniProt Q9P287, whole entry, looked up: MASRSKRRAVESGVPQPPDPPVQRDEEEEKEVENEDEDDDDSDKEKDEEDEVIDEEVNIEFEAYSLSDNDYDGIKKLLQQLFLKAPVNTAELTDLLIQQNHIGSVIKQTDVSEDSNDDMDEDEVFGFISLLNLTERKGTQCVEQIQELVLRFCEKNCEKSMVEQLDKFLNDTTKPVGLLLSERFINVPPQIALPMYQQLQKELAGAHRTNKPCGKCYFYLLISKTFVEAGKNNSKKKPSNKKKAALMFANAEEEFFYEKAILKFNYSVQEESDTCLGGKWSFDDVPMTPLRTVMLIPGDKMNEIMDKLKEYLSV
# UniProt P21953: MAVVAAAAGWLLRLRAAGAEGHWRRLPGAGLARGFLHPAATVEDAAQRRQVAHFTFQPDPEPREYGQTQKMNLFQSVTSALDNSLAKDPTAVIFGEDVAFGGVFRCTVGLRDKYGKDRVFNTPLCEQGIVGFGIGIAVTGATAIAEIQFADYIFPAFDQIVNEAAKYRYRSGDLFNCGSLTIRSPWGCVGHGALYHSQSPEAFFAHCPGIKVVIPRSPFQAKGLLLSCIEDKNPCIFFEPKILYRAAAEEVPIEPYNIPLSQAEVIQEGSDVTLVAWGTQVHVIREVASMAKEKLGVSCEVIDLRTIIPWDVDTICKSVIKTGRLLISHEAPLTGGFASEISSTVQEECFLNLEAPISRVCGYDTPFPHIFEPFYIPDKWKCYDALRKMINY
# UniProt P53004: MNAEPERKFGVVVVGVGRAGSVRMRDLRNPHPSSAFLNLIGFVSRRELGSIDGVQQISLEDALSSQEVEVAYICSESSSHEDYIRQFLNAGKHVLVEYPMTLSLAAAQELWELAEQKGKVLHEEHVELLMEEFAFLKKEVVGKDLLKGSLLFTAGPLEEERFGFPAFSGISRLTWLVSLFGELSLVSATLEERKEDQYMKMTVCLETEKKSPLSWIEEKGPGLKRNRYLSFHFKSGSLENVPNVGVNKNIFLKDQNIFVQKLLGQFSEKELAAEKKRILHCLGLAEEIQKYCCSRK
# UniProt Q5VW32: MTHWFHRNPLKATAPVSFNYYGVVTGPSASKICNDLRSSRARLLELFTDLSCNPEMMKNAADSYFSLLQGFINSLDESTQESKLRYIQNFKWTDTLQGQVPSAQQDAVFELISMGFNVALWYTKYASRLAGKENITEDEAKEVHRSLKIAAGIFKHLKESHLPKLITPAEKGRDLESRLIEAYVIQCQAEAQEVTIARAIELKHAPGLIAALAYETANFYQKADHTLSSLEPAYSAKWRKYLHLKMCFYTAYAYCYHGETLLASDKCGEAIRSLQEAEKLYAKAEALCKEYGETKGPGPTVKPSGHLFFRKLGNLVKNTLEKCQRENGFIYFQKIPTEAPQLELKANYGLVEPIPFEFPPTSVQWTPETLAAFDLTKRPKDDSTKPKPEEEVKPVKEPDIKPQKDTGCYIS
# UniProt Q9H6U6: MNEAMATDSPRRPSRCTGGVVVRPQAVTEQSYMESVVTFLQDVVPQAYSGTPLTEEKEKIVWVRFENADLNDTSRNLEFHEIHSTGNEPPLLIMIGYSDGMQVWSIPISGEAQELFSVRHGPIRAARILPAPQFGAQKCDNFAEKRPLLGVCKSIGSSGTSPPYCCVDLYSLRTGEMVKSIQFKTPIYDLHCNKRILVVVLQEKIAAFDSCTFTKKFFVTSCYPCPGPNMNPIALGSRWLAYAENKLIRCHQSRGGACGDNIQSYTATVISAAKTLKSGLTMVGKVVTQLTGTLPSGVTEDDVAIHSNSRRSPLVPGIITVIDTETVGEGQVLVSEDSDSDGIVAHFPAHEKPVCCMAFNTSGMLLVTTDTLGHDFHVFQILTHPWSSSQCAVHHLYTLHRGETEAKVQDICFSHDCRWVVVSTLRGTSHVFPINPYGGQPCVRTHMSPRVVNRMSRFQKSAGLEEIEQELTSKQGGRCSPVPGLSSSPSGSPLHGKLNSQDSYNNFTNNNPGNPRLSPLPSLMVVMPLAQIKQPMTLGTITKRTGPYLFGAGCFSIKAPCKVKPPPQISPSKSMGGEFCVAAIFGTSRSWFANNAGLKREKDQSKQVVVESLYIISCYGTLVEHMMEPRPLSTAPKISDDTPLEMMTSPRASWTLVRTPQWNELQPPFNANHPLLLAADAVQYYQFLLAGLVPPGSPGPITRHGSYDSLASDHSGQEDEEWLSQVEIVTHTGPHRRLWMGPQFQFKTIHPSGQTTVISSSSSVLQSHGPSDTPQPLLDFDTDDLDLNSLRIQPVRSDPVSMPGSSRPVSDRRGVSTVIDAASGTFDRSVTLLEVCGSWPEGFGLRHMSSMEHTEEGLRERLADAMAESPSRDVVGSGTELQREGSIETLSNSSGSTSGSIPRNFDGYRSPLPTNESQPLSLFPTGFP
# UniProt Q8WY22: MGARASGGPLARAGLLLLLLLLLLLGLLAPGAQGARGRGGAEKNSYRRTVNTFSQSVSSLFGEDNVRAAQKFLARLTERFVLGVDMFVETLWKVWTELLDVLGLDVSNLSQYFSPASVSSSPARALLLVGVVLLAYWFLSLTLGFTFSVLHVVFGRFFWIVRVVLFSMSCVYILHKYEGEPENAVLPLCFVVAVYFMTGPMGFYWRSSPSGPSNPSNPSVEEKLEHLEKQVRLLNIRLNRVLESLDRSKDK
# UniProt Q8NFC6: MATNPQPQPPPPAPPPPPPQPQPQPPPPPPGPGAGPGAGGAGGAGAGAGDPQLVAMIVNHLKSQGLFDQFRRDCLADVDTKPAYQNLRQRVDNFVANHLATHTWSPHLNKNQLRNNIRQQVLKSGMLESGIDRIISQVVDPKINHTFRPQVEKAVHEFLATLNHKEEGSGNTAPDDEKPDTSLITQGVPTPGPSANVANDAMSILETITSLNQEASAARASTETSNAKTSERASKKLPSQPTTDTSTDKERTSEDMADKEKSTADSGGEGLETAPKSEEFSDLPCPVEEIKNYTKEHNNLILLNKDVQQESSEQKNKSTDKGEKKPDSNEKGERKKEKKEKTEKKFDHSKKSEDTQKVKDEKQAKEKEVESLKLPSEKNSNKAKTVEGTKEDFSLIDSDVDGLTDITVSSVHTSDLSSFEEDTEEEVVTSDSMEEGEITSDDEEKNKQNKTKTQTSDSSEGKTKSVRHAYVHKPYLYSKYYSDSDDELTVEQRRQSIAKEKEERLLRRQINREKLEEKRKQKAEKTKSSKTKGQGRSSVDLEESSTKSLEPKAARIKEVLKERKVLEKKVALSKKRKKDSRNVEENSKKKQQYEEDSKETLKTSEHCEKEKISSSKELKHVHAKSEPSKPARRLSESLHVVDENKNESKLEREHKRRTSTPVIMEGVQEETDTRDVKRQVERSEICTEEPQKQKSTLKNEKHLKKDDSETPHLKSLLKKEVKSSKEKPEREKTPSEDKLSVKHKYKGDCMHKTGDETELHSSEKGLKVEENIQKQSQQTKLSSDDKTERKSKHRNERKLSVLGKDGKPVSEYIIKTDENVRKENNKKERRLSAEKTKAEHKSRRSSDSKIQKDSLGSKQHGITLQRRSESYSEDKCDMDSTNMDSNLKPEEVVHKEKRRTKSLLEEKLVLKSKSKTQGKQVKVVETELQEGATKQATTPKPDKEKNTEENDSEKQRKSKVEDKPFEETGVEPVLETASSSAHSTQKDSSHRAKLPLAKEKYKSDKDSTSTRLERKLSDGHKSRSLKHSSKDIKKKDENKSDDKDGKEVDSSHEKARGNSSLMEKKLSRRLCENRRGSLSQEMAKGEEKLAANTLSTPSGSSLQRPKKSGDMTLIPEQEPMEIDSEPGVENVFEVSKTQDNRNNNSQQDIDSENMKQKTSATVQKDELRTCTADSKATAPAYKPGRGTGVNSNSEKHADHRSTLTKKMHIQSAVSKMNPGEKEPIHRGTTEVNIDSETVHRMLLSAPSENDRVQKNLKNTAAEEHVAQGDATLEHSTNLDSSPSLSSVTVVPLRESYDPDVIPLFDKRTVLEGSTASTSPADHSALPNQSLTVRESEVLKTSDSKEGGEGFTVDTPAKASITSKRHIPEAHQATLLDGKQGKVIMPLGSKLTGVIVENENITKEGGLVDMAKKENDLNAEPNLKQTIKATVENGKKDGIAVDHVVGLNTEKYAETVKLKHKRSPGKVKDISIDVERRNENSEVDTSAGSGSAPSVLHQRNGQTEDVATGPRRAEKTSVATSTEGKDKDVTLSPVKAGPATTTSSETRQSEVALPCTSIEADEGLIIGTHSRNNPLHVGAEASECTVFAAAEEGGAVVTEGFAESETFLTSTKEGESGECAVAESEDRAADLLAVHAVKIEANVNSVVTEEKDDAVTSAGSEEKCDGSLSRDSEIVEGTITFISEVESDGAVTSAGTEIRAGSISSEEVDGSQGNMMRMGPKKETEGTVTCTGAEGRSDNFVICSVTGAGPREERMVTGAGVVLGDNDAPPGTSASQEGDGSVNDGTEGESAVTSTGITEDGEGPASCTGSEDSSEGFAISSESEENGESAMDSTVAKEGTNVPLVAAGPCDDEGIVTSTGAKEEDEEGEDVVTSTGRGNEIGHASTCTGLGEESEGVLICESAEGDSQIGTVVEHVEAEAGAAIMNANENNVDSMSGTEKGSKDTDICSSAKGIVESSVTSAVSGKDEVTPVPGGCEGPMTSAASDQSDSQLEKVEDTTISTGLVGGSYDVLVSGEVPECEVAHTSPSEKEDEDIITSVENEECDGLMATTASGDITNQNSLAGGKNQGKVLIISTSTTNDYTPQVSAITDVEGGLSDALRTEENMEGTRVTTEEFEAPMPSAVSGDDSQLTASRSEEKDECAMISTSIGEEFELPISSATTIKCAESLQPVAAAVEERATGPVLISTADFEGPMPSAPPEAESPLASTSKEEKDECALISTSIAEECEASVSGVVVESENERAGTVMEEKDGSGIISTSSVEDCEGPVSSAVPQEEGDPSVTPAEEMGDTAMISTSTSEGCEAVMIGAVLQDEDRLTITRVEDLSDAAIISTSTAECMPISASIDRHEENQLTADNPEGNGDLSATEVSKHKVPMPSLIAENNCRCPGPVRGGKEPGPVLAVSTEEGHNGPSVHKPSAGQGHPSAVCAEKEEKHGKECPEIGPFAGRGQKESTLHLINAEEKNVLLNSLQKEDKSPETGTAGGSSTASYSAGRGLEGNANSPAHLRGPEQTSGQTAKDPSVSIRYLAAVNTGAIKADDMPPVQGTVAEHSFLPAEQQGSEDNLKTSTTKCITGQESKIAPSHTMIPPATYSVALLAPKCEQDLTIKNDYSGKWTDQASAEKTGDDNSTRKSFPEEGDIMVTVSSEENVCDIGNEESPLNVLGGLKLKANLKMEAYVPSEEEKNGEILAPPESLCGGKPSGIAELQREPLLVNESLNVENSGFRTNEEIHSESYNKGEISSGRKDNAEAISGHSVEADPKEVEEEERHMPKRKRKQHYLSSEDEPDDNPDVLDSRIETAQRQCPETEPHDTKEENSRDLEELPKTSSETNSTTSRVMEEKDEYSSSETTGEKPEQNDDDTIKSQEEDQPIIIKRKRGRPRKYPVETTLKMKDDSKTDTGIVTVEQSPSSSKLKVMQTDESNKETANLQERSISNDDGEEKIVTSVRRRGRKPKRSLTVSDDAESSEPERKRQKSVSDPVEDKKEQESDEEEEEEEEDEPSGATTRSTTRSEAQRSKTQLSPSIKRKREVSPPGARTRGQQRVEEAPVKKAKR
# UniProt O75531: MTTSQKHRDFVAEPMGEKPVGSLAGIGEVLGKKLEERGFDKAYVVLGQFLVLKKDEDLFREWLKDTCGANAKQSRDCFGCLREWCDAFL
# UniProt Q6PGQ7, whole entry, looked up: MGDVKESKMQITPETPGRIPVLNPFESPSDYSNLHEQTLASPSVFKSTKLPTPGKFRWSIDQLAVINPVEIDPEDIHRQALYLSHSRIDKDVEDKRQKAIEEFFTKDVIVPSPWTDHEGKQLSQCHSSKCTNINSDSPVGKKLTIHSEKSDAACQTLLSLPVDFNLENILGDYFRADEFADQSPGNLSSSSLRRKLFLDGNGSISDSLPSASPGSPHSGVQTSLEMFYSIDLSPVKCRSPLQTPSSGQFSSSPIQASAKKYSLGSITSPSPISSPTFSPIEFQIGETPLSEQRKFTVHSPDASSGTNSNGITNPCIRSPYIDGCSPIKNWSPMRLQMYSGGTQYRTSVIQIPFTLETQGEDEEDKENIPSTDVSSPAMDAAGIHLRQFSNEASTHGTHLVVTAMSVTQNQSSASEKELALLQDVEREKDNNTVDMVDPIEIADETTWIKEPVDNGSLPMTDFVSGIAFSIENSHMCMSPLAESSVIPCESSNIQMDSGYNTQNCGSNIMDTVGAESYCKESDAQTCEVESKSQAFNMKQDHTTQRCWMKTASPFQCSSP
# UniProt Q9H3K6: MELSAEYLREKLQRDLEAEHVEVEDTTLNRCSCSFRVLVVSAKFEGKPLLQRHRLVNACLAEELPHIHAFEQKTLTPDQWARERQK
# UniProt O95816: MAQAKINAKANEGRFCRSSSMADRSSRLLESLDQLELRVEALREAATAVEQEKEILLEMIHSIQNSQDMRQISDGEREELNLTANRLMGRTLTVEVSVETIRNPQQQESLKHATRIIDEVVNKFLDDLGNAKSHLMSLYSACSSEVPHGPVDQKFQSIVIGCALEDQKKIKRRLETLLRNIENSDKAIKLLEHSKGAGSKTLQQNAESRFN
# Some of the results follow.
# Columns and labels:
# Assay in all cases: log2 fold change, soluble protein after heating vs DMSO (PISA); higher = thermal stabilisation; K562 lysate, 10 uM; active = over 0.2 and 3.5 SD of the protein, either way, in both replicates (recomputed)
# erlotinib = compound: C#Cc1cccc(Nc2ncnc3cc(OCCOC)c(OCCOC)cc23)c1 [erlotinib]
# Method in brief: (§1)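 Soluble protein was defined as the supernatant remaining after 21,000xg for 90 min, following pooling of heated aliquots and adjustment to 0.5% NP-40 at 4°C. Before that, crude K562 extract at 1 mg/mL protein in PBS pH 7.4 with 1 mM MgCl2 was treated with 10 μM compound for 30 min and heated for 3 min across 48°C-58°C. Quantification used TMTpro 16plex LC-MS/MS with channel sums equalised, and values are log-two fold changes in thermal stability relative to solvent controls from duplicates.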
# [1] = compound: C/C(=N\NC(=O)C1=CC(=CC=C1)S(=O)(=O)N2CCOCC2)/C3=C(C=CC(=C3)Cl)O
# Method in brief: as §1
# [2] = compound: C1=CC(=CC=C1C2=NC3=C(N2)C=C(C=C3)C(=O)N)OC4=CC=C(C=C4)Cl
# Method in brief: as §1
# [3] = compound: C1=CC2=C(C=CC(=C2)/C=C\3/C(=O)NC(=NCC4=CC=CS4)S3)N=C1
# Method in brief: as §1
# [4] = compound: C1=CC2=NC=CN=C2C=C1/C=C/3\C(=O)NC(=O)S3
# Method in brief: as §1
# [5] = compound: C1=CC=C(C=C1)C2=NC(=C(N2)C3=CC=NC=C3)C4=CC(=C(C=C4)Cl)O
# Method in brief: as §1
# [6] = compound: C1=CC=C2C(=C1)C3=NNC4=CC=CC(=C43)C2=O
# Method in brief: as §1
# [7] = compound: C1CCN(C1)C(=O)NC2=CC=CC(=C2)NC3=NC=C(C(=N3)NCCC4=CN=CN4)Br
# Method in brief: as §1
# [8] = compound: C1CN(CCC1(CC2=CC=C(C=C2)Cl)N)C3=NC=NC4=C3C=CN4
# Method in brief: as §1
# IRAK-1-4 Inhibitor I = compound: C1COCCN1CCN2C3=CC=CC=C3N=C2NC(=O)C4=CC(=CC=C4)[N+](=O)[O-] [IRAK-1-4 Inhibitor I]
# Method in brief: as §1
# ibrutinib = compound: C=CC(=O)N1CCC[C@@H](n2nc(-c3ccc(Oc4ccccc4)cc3)c3c(N)ncnc32)C1 [ibrutinib]
# Method in brief: as §1
# [9] = compound: CC(=O)c1cnc2ccc(-c3cc(Cl)c(O)c(Cl)c3)nc2c1N[C@H]1CC[C@H](CN(C)C)CC1
# Method in brief: as §1
# ralimetinib = compound: CC(C)(C)Cn1c(N)nc2ccc(-c3[nH]c(C(C)(C)C)nc3-c3ccc(F)cc3)nc21 [ralimetinib]
# Method in brief: as §1
# [10] = compound: CC(C)(O)CC(=O)NCCn1ccc2ncnc(Nc3ccc(Oc4cccc(C(F)(F)F)c4)c(Cl)c3)c21
# Method in brief: as §1
# [11] = compound: CC(C)C1=C2N=C(C=C(N2N=C1)NCC3=CC=CC=C3)NCCCCCCN
# Method in brief: as §1
# [12] = compound: CC1=C(C(CC(=O)N1)C2=CC=C(C=C2)C(F)(F)F)C(=O)NC3=C(C=C4C(=C3)C=NN4)F
# Method in brief: as §1
# [13] = compound: CC1=C(C2=C(C=C1)C(=O)C3=CC=CC=C3N2CCCN)C
# Method in brief: as §1
# [14] = compound: CC1=C(C=C(C=C1)NC(=O)C2=CC(=CC=C2)C(C)(C)C#N)NC3=CC4=C(C=C3)N=CN(C4=O)C
# Method in brief: as §1
# [15] = compound: CC1=C(C=C(C=C1)NC(=O)C2=CC(=CC=C2)N(C)C)NC(=O)C3=CC=C(C=C3)O
# Method in brief: as §1
# [16] = compound: CC1=CC=C(C=C1)SC2=C3C=C(SC3=CN=C2)C(=O)N
# Method in brief: as §1
Target,log2 fold change (erlotinib),log2 fold change [1],log2 fold change [2],log2 fold change [3],log2 fold change [4],log2 fold change [5],log2 fold change [6],log2 fold change [7],log2 fold change [8],log2 fold change (IRAK-1-4 Inhibitor I),log2 fold change (ibrutinib),log2 fold change [9],log2 fold change (ralimetinib),log2 fold change [10],log2 fold change [11],log2 fold change [12],log2 fold change [13],log2 fold change [14],log2 fold change [15],log2 fold change [16]
BCCIP (UniProt Q9P287),inactive: -0.012,inactive: -0.005,inactive: 0,inactive: 0.027,inactive: 0.007,inactive: 0.007,inactive: 0.011,inactive: 0.024,inactive: 0.006,inactive: 0.006,inactive: 0.005,inactive: 0,inactive: 0.014,inactive: 0.04,inactive: -0.027,inactive: -0.008,inactive: -0.02,inactive: -0.084,inactive: 0.017,inactive: -0.006
BCKDHB (UniProt P21953),inactive: 0.013,inactive: -0.034,inactive: 0.033,inactive: -0.089,inactive: 0.049,inactive: -0.098,inactive: -0.117,inactive: 0.065,inactive: -0.012,inactive: 0.134,inactive: -0.102,inactive: 0.025,inactive: 0.003,inactive: -0.01,inactive: -0.037,inactive: 0.016,inactive: -0.022,inactive: -0.078,inactive: 0.071,inactive: 0.024
BLVRA (UniProt P53004),inactive: 0.006,inactive: 0.027,inactive: 0.001,inactive: -0.01,inactive: 0.012,inactive: -0.023,inactive: 0.011,inactive: -0.009,inactive: 0.017,inactive: 0.027,inactive: 0.002,inactive: 0.004,inactive: -0.015,inactive: 0.018,inactive: -0.002,inactive: -0.004,inactive: 0.014,inactive: -0.008,inactive: -0.014,inactive: 0.008
BAG4 (UniProt O95429),inactive: -0.036,inactive: 0.046,inactive: 0.075,inactive: -0.017,inactive: 0.004,inactive: -0.038,inactive: 0.021,inactive: 0.047,inactive: 0.017,inactive: 0,inactive: 0.082,inactive: 0.005,inactive: -0.009,inactive: 0.02,inactive: -0.035,inactive: -0.014,inactive: 0,active: -0.375,inactive: -0.021,inactive: -0.017
BROX (UniProt Q5VW32),inactive: -0.006,inactive: 0.031,inactive: -0.012,inactive: -0.009,inactive: -0.017,inactive: -0.007,inactive: 0,inactive: 0.006,inactive: -0.025,inactive: -0.03,inactive: 0.015,inactive: 0,inactive: -0.005,inactive: -0.009,inactive: -0.03,inactive: -0.032,inactive: 0.049,inactive: 0.015,inactive: 0.021,inactive: 0.001
BCAS3 isoform 8 (UniProt Q9H6U6),inactive: -0.04,inactive: 0.107,inactive: 0.054,inactive: -0.122,inactive: -0.012,inactive: 0.011,inactive: -0.058,inactive: -0.14,inactive: -0.14,inactive: 0.018,inactive: -0.002,inactive: 0.005,inactive: 0.049,inactive: 0.117,inactive: 0.061,–,inactive: -0.036,inactive: 0.07,inactive: -0.039,inactive: -0.012
BRCA2 (UniProt P51587),inactive: -0.066,inactive: -0.08,inactive: -0.221,inactive: -0.037,inactive: 0.014,inactive: 0.001,inactive: -0.107,inactive: -0.087,inactive: 0.111,inactive: 0.106,inactive: -0.167,–,inactive: -0.15,inactive: -0.021,inactive: -0.008,inactive: 0.088,inactive: -0.15,inactive: -0.003,inactive: 0.121,–
BRI3BP (UniProt Q8WY22),inactive: 0.049,inactive: 0.106,inactive: 0.077,inactive: -0.009,inactive: 0.047,inactive: -0.029,inactive: -0.11,inactive: 0.108,inactive: 0.103,inactive: -0.074,inactive: -0.057,inactive: 0.096,inactive: -0.005,inactive: 0.052,inactive: -0.121,inactive: -0.007,inactive: 0.056,–,inactive: -0.085,inactive: 0.006
BOD1L1 (UniProt Q8NFC6),inactive: -0.015,inactive: -0.011,inactive: 0.05,inactive: 0.006,inactive: -0.021,inactive: -0.002,inactive: -0.016,inactive: -0.006,inactive: -0.001,inactive: 0.001,inactive: 0.012,inactive: -0.013,inactive: -0.001,inactive: -0.031,inactive: 0.014,inactive: -0.013,inactive: -0.021,inactive: 0.002,inactive: 0.014,inactive: -0.018
BAD (UniProt Q92934),inactive: 0.04,inactive: -0.084,inactive: -0.022,inactive: 0.089,inactive: -0.068,inactive: -0.044,inactive: 0.013,inactive: 0.03,inactive: -0.057,inactive: 0.049,inactive: 0.083,–,inactive: 0.023,inactive: -0.002,inactive: 0.057,–,inactive: 0.084,inactive: 0.019,inactive: 0.014,–
BANF1 (UniProt O75531),inactive: 0.069,inactive: -0.016,inactive: -0.035,inactive: -0.105,inactive: -0.03,inactive: 0.036,inactive: -0.069,inactive: 0,inactive: -0.016,inactive: -0.02,inactive: 0.017,inactive: -0.065,inactive: -0.051,inactive: 0.014,inactive: 0.014,inactive: 0.026,inactive: -0.01,inactive: 0.097,inactive: 0.055,inactive: -0.028
BPTF (UniProt Q12830),inactive: 0.034,inactive: -0.001,inactive: 0.039,inactive: -0.002,inactive: -0.027,inactive: 0.001,inactive: -0.048,inactive: -0.018,inactive: 0.003,inactive: 0.015,inactive: -0.029,inactive: -0.016,inactive: -0.017,inactive: -0.03,inactive: 0.013,inactive: -0.005,inactive: -0.02,inactive: 0.009,inactive: 0.057,inactive: -0.015
BAG6 isoform 3 (UniProt P46379),inactive: -0.003,inactive: 0.005,inactive: -0.053,inactive: 0.029,inactive: 0,inactive: -0.011,inactive: 0.034,inactive: 0.02,inactive: 0.005,inactive: 0.006,inactive: 0.029,inactive: 0.003,inactive: 0.026,inactive: -0.045,inactive: -0.006,inactive: 0.02,inactive: 0.015,inactive: -0.006,inactive: 0.009,inactive: -0.005
BORA (UniProt Q6PGQ7),inactive: 0.013,inactive: -0.121,inactive: -0.022,inactive: 0.211,inactive: -0.035,inactive: -0.026,inactive: 0.05,inactive: 0.025,inactive: 0.103,inactive: -0.008,inactive: 0.108,–,inactive: 0.002,inactive: -0.033,inactive: 0.053,inactive: 0.006,inactive: 0.051,inactive: 0.078,inactive: -0.02,–
BOLA2 (UniProt Q9H3K6),inactive: 0.008,inactive: 0.078,inactive: -0.112,inactive: -0.007,inactive: 0.032,inactive: 0.01,inactive: 0.039,inactive: 0.034,inactive: 0.006,inactive: 0.013,inactive: -0.01,inactive: 0.02,inactive: -0.025,inactive: 0.008,inactive: -0.025,inactive: -0.059,inactive: 0.038,inactive: -0.029,inactive: -0.022,inactive: 0.039
BAG2 (UniProt O95816),inactive: -0.066,inactive: -0.046,inactive: 0.008,inactive: -0.002,inactive: -0.012,inactive: -0.003,inactive: -0.034,inactive: 0.013,inactive: -0.007,inactive: -0.005,inactive: -0.052,inactive: 0.003,inactive: 0.015,inactive: 0.017,inactive: 0.007,inactive: -0.03,inactive: 0.018,inactive: 0.007,inactive: -0.011,inactive: -0.007

# Whole records as entered above. Order of values: log2 fold change (erlotinib)	log2 fold change [1]	log2 fold change [2]	log2 fold change [3]	log2 fold change [4]	log2 fold change [5]	log2 fold change [6]	log2 fold change [7]	log2 fold change [8]	log2 fold change (IRAK-1-4 Inhibitor I)	log2 fold change (ibrutinib)	log2 fold change [9]	log2 fold change (ralimetinib)	log2 fold change [10]	log2 fold change [11]	log2 fold change [12]	log2 fold change [13]	log2 fold change [14]	log2 fold change [15]	log2 fold change [16]
# BANF1 (UniProt O75531) in the list: inactive: 0.069	inactive: -0.016	inactive: -0.035	inactive: -0.105	inactive: -0.03	inactive: 0.036	inactive: -0.069	inactive: 0	inactive: -0.016	inactive: -0.02	inactive: 0.017	inactive: -0.065	inactive: -0.051	inactive: 0.014	inactive: 0.014	inactive: 0.026	inactive: -0.01	inactive: 0.097	inactive: 0.055	inactive: -0.028
# BCAS3 isoform 8 (UniProt Q9H6U6) in the list: inactive: -0.04	inactive: 0.107	inactive: 0.054	inactive: -0.122	inactive: -0.012	inactive: 0.011	inactive: -0.058	inactive: -0.14	inactive: -0.14	inactive: 0.018	inactive: -0.002	inactive: 0.005	inactive: 0.049	inactive: 0.117	inactive: 0.061	–	inactive: -0.036	inactive: 0.07	inactive: -0.039	inactive: -0.012
